This is an account of results in PMC6328613.

Results are given in words; binding and its absence hold for the method and conditions named. Binding calls can cover weak binding; strength is not graded here. For some of these results: Where a sequence is shown, tags or fusion partners need not be part of it. For some of these results: Binding seen in cells or lysates may run through a third protein.

The target of assay [1] is T1, Scyl1 (yeast two-hybrid fusion) (UniProt Q96KG9).
T1 sequence: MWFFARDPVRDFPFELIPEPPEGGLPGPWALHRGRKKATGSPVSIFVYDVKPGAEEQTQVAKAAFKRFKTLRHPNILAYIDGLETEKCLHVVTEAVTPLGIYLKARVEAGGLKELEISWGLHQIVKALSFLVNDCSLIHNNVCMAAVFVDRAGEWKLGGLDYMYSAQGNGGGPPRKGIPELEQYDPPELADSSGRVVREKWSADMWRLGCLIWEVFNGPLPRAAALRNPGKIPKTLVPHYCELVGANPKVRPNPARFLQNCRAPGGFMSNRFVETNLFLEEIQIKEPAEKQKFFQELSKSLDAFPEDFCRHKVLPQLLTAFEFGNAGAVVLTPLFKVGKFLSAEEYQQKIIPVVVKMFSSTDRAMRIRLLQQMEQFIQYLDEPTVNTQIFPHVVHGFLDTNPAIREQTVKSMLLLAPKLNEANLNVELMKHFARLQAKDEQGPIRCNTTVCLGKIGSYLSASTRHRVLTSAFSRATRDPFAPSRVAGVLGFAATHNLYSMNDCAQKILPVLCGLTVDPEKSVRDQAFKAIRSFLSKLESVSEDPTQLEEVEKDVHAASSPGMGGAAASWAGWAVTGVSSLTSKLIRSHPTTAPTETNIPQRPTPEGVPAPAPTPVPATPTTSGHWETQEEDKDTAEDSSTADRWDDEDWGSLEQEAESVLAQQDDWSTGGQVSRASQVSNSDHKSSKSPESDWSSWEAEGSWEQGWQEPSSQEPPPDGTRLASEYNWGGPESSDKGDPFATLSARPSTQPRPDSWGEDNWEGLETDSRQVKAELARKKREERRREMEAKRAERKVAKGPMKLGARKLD
The experiment in a line: two-hybrid; Matchmaker Gold system, yeast strain Y2HGold; AD prey and BD bait co-transformed; growth on quadruple drop-out (SD/-Ade/-His/-Leu/-Trp) plates at 30 °C.

In assay [2] the target is T2, GST-Scyl1 (bait of Fig. 4b) (UniProt Q96KG9).
T2 sequence: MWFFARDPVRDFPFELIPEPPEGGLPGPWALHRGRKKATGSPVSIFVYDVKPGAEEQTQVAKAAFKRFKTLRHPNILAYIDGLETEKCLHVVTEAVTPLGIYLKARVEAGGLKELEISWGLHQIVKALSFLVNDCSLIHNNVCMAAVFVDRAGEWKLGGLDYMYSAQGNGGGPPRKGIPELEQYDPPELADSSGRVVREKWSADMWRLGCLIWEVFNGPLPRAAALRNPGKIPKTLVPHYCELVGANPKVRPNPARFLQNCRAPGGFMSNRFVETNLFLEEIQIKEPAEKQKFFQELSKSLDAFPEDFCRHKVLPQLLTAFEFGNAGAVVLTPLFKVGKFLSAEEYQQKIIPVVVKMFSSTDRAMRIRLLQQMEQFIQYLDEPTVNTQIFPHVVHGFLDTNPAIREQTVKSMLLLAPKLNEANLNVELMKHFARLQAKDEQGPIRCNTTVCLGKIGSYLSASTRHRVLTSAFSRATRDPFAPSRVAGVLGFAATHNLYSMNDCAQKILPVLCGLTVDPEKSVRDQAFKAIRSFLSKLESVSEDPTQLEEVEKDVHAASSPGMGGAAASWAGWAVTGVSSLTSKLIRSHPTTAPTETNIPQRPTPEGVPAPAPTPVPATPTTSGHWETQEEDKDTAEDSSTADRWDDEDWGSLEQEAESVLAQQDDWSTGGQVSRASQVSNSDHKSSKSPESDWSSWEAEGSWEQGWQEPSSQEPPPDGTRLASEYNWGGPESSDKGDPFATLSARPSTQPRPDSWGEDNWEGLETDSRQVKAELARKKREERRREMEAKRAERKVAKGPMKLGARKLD
The experiment in a line: pull-down; GST-tagged bait proteins with lysates of RPE-1 cells expressing GFP-tagged GORAB variants; bound fractions blotted for GFP; only the target purified.

The target of assay [3] is GORABK190del-mycFKBP (human). Nature of the assay: mitochondrial relocation assay (fluorescence microscopy); HeLaM cells co-transfected with mito-FRB and GORAB-mycFKBP (K190del or wild type); 2.5 µg/mL nocodazole 2 h, then 1 µM rapamycin 3 h; in some samples 5 µg/mL BFA for 15 min; recruitment of co-expressed or endogenous proteins to mitochondria.
Assay [4] has as its target GORAB-mycFKBP (wild type) (human). The assay is described as above.
Assay [5] has as its target GST-GORAB (human). Nature of the assay: pull-down; 40 µg GST-tagged bait on glutathione resin with 2-3 mg sHeLa cell lysate (endogenous proteins), HMNT buffer, 4 h at 4 °C; western blotting; only the target purified.
In assay [6] the target is GST-GORAB (human). The experiment in a line: pull-down; direct binding: 20 µg purified GST-tagged bait on glutathione resin with 20 µg MBP-tagged Scyl1 in HMNT buffer with 100 µg/mL BSA, 4 h at 4 °C; Coomassie Blue staining; both purified.
Assay [7] deals with GST-tagged GORAB fragment: N-terminal non-coil domain (human). Described as above.
Assay [8] has as its target GST-GORAB (human). Nature of the assay: pull-down; GST-tagged bait on glutathione resin with rat liver Golgi (RLG) membrane extract in HKMT buffer; western blotting; only the target purified. In general terms: A western blot detects proteins with antibodies after separation by electrophoresis.

For GORAB (yeast two-hybrid fusion) (human), the binding entry in assay [1] was “binds”.

Consider GFP-GORAB (wild type) (human), for which the binding entry in assay [2] was “binds”. On the same count and under the same terms, the entry for GFP-GORAB K190del (human) is “binds”.

B1: Scyl1, endogenous in HeLa cells (protein, UniProt Q96KG9 1-808)
chain: MWFFARDPVRDFPFELIPEPPEGGLPGPWALHRGRKKATGSPVSIFVYDVKPGAEEQTQVAKAAFKRFKTLRHPNILAYIDGLETEKCLHVVTEAVTPLGIYLKARVEAGGLKELEISWGLHQIVKALSFLVNDCSLIHNNVCMAAVFVDRAGEWKLGGLDYMYSAQGNGGGPPRKGIPELEQYDPPELADSSGRVVREKWSADMWRLGCLIWEVFNGPLPRAAALRNPGKIPKTLVPHYCELVGANPKVRPNPARFLQNCRAPGGFMSNRFVETNLFLEEIQIKEPAEKQKFFQELSKSLDAFPEDFCRHKVLPQLLTAFEFGNAGAVVLTPLFKVGKFLSAEEYQQKIIPVVVKMFSSTDRAMRIRLLQQMEQFIQYLDEPTVNTQIFPHVVHGFLDTNPAIREQTVKSMLLLAPKLNEANLNVELMKHFARLQAKDEQGPIRCNTTVCLGKIGSYLSASTRHRVLTSAFSRATRDPFAPSRVAGVLGFAATHNLYSMNDCAQKILPVLCGLTVDPEKSVRDQAFKAIRSFLSKLESVSEDPTQLEEVEKDVHAASSPGMGGAAASWAGWAVTGVSSLTSKLIRSHPTTAPTETNIPQRPTPEGVPAPAPTPVPATPTTSGHWETQEEDKDTAEDSSTADRWDDEDWGSLEQEAESVLAQQDDWSTGGQVSRASQVSNSDHKSSKSPESDWSSWEAEGSWEQGWQEPSSQEPPPDGTRLASEYNWGGPESSDKGDPFATLSARPSTQPRPDSWGEDNWEGLETDSRQVKAELARKKREERRREMEAKRAERKVAKGPMKLGARKLD
In the case of B1, the binding entry (in assay [3]; in assay [4]; with GST-GORAB (human) [5]) was “binds” throughout.

B2: MBP-Scyl1 (protein, UniProt Q96KG9 1-808)
chain: MWFFARDPVRDFPFELIPEPPEGGLPGPWALHRGRKKATGSPVSIFVYDVKPGAEEQTQVAKAAFKRFKTLRHPNILAYIDGLETEKCLHVVTEAVTPLGIYLKARVEAGGLKELEISWGLHQIVKALSFLVNDCSLIHNNVCMAAVFVDRAGEWKLGGLDYMYSAQGNGGGPPRKGIPELEQYDPPELADSSGRVVREKWSADMWRLGCLIWEVFNGPLPRAAALRNPGKIPKTLVPHYCELVGANPKVRPNPARFLQNCRAPGGFMSNRFVETNLFLEEIQIKEPAEKQKFFQELSKSLDAFPEDFCRHKVLPQLLTAFEFGNAGAVVLTPLFKVGKFLSAEEYQQKIIPVVVKMFSSTDRAMRIRLLQQMEQFIQYLDEPTVNTQIFPHVVHGFLDTNPAIREQTVKSMLLLAPKLNEANLNVELMKHFARLQAKDEQGPIRCNTTVCLGKIGSYLSASTRHRVLTSAFSRATRDPFAPSRVAGVLGFAATHNLYSMNDCAQKILPVLCGLTVDPEKSVRDQAFKAIRSFLSKLESVSEDPTQLEEVEKDVHAASSPGMGGAAASWAGWAVTGVSSLTSKLIRSHPTTAPTETNIPQRPTPEGVPAPAPTPVPATPTTSGHWETQEEDKDTAEDSSTADRWDDEDWGSLEQEAESVLAQQDDWSTGGQVSRASQVSNSDHKSSKSPESDWSSWEAEGSWEQGWQEPSSQEPPPDGTRLASEYNWGGPESSDKGDPFATLSARPSTQPRPDSWGEDNWEGLETDSRQVKAELARKKREERRREMEAKRAERKVAKGPMKLGARKLD
On to B2, for which the binding entry (in the assay with GST-GORAB (human) [6]; in assay [7]) was “binds” each time.

B3: Scyl1, endogenous in rat liver Golgi membranes (protein, UniProt Q5M9F8 1-807)
chain: MWFFARDPVRDFPFELNPEPPEGGPPGPWVLHRGRKKATGSAVSIFVYDVKPGAEEQTQVAKAAFKRLKTLRHPNILAYIDGLETEKCLHIVTEAVTPLGTYLKARAEAGGLKEQELSWGLHQIVKALSFLVNDCNLIHNNVCMAAVFVDKAGEWKLGGLDYMYSAQGNGGGPPNKGIPELEQYDPPELADSSSRAVKEKWSADMWRLGCLIWEVFNGSLPRATALRNPGKIPKSLVTHYCELVGANPKVRPNPARFLQNCRAPGGFMSNRFVETNLFLEEIQIKEPAEKQKFFQELSKSLDSFPEDFCRHKVLPQLLTAFEFGNAGAVVLTPLFKVGKFLSAEEYQQKIIPVVVKMFSSTDRAMRVRLLQQMEQFIQYLDEPTVNTQIFPHVTHGFLDTNPAIREQTVKSMLLLAPKLSETNLNVELLKHFARLQAKDDQGPIRCNTTVCLGKIGSYLSASTRHRVLTSAFSRATKDPFAPSRVAGVLGFAATHNLYSMDDCAHKILPVLCGLTVDPEKSVRDQAFKTIRSFLSKLESVSEDPTQLAEIEKDVHAASSPGTGGAAASWAGWAVTGVSSLTSKLIRTHPTPVPSEAAVPQRPVPEGDPAPAPAPASATPATSGHRETQEEDKDAAEDSATADRWDDEDWGSLEQEAESVLAQQDDWSTKGQGNRAGQVSHSDHKSLDSHWSSWEVEGSWDQGWQEPSSVEPPPEGTRLASEYNWGGAEPSDKGDPFAALSVRPSTQPRPDPDSWGEDNWEGLEAESRQVKAELARKKREERRREMEAKRAEKKATKGPMKLGARKLD
Regarding B3, in the assay with GST-GORAB (human) [8], the binding result is listed as “binds”.

B4: GFP-Scyl2 (protein, UniProt Q6P3W7 1-929)
chain: MESMLNKLKSTVTKVTADVTSAVMGNPVTREFDVGRHIASGGNGLAWKIFNGTKKSTKQEVAVFVFDKKLIDKYQKFEKDQIIDSLKRGVQQLTRLRHPRLLTVQHPLEESRDCLAFCTEPVFASLANVLGNWENLPSPISPDIKDYKLYDVETKYGLLQVSEGLSFLHSSVKMVHGNITPENIILNKSGAWKIMGFDFCVSSTNPSEQEPKFPCKEWDPNLPSLCLPNPEYLAPEYILSVSCETASDMYSLGTVMYAVFNKGKPIFEVNKQDIYKSFSRQLDQLSRLGSSSLTNIPEEVREHVKLLLNVTPTVRPDADQMTKIPFFDDVGAVTLQYFDTLFQRDNLQKSQFFKGLPKVLPKLPKRVIVQRILPCLTSEFVNPDMVPFVLPNVLLIAEECTKEEYVKLILPELGPVFKQQEPIQILLIFLQKMDLLLTKTPPDEIKNSVLPMVYRALEAPSIQIQELCLNIIPTFANLIDYPSMKNALIPRIKNACLQTSSLAVRVNSLVCLGKILEYLDKWFVLDDILPFLQQIPSKEPAVLMGILGIYKCTFTHKKLGITKEQLAGKVLPHLIPLSIENNLNLNQFNSFISVIKEMLNRLESEHKTKLEQLHIMQEQQKSLDIGNQMNVSEEMKVTNIGNQQIDKVFNNIGADLLTGSESENKEDGLQNKHKRASLTLEEKQKLAKEQEQAQKLKSQQPLKPQVHTPVATVKQTKDLTDTLMDNMSSLTSLSVSTPKSSASSTFTSVPSMGIGMMFSTPTDNTKRNLTNGLNANMGFQTSGFNMPVNTNQNFYSSPSTVGVTKMTLGTPPTLPNFNALSVPPAGAKQTQQRPTDMSALNNLFGPQKPKVSMNQLSQQKPNQWLNQFVPPQGSPTMGSSVMGTQMNVIGQSAFGMQGNPFFNPQNFAQPPTTMTNSSSASNDLKDLFG
Regarding B4, the binding entry in assay [3] and in assay [4] was “no binding” throughout.

B5: GFP-tagged Scyl3 (protein, UniProt Q8IZE3 1-742)
chain: MGSENSALKSYTLREPPFTLPSGLAVYPAVLQDGKFASVFVYKRENEDKVNKAAKHLKTLRHPCLLRFLSCTVEADGIHLVTERVQPLEVALETLSSAEVCAGIYDILLALIFLHDRGHLTHNNVCLSSVFVSEDGHWKLGGMETVCKVSQATPEFLRSIQSIRDPASIPPEEMSPEFTTLPECHGHARDAFSFGTLVESLLTILNEQVSADVLSSFQQTLHSTLLNPIPKCRPALCTLLSHDFFRNDFLEVVNFLKSLTLKSEEEKTEFFKFLLDRVSCLSEELIASRLVPLLLNQLVFAEPVAVKSFLPYLLGPKKDHAQGETPCLLSPALFQSRVIPVLLQLFEVHEEHVRMVLLSHIEAYVEHFTQEQLKKVILPQVLLGLRDTSDSIVAITLHSLAVLVSLLGPEVVVGGERTKIFKRTAPSFTKNTDLSLEDSPMCVVCSHHSQISPILENPFSSIFPKCFFSGSTPINSKKHIQRDYYNTLLQTGDPFSQPIKFPINGLSDVKNTSEDSENFPSSSKKSEEWPDWSEPEEPENQTVNIQIWPREPCDDVKSQCTTLDVEESSWDDCEPSSLDTKVNPGGGITATKPVTSGEQKPIPALLSLTEESMPWKSSLPQKISLVQRGDDADQIEPPKVSSQERPLKVPSELGLGEEFTIQVKKKPVKDPEMDWFADMIPEIKPSAAFLILPELRTEMVPKKDDVSPVMQFSSKFAAAEITEGEAEGWEEEGELNWEDNNW
For B5, the binding result in assay [3] and in assay [4] was “no binding” each time.
